The supplement of paper PMC12578635
This is one part of the list. Cut-off read from the data, not from the text of the source: active = 150% or more and inactive = the rest. Repeats are few or missing, and single values can be far off.

Test system: Staphylococcus aureus JE2-lux inside RAW 264.7 macrophages
Assay: intracellular bacterial bioluminescence relative to DMSO vehicle; higher = higher intracellular bacterial metabolic activity
Settings: 10 µM; treatment time 4 h; gentamicin 50 µg/ml
Protocol: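 RAW 264.7 macrophages infected with bioluminescent MRSA JE2-lux (MOI 100) were dispensed into 384-well plates with 10 µM compound in the presence of 50 µg/ml gentamicin. After 4 h at 37 °C, bacterial bioluminescence (a proxy for intracellular bacterial metabolic activity) and host cell viability (CellTiter-Fluor) were read and normalised to 0.1% DMSO vehicle controls. Single-pass screen of the UNC CICBDD kinase-targeted library (>4,700 compounds).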

Intracellular bacterial bioluminescence, inactive:
Cc1cc(=O)[nH]c(SCc2ccc(C(=O)Nc3nccs3)cc2)n1 88.3%
O=C(CSC1=NS(=O)(=O)c2cc(F)ccc2N1)NCc1ccccc1Cl 102%
CCc1nnc2ccc(C(=O)N3CCN(c4ccccn4)CC3)cn12 97.3%
Cn1c2ccccc2c2nnc(SCC(=O)Nc3ccc(NC(=O)C4CC4)cc3)nc21 102%
Cc1cc2oc(=O)cc(-c3cc4ccccc4o3)c2cc1OC(=O)C1CC1 122%
CCN1CCN(C(=O)C2CCN(C3=NS(=O)(=O)C(c4ccc(OC)cc4)=C3C)CC2)CC1 84.9%
COc1ccc(CCNc2ncnc3oc4c(c23)CCCC4)c(OC)c1 104%
CC(=O)c1ccc(OCC(O)CN2CCc3ccccc3C2)cc1 (centres undefined) 82.4%
N#Cc1c(NC(=O)C2CC(=O)NN2Cc2ccccc2)sc2c1CCCC2 (centres undefined) 65.4%
Cc1nnc2sc(SCC(=O)Nc3ccc(Cl)cc3)nn2c1=O 99.6%
COC(=O)c1nn(-c2ccc3c(c2)CCN3C(C)=O)cc1O 125%
N#Cc1cc2cc3c(cc2nc1NCCCNC(=O)COc1ccccc1)OCO3 82.6%
Cc1ccc(/C=C/c2nc3ccccc3[nH]c2=O)cc1 40.9%
O=C(Oc1ccc2oc(=O)cc(-c3cc4ccccc4o3)c2c1)c1cccs1 142%
Cc1ccc(Cc2nnc(SCC(=O)Nc3cccc(Cl)c3C)n(N)c2=O)cc1 110%
CCCCC(=O)Nc1cnc(N2CCN(c3ccccn3)CC2)c(C(=O)O)c1 101%
CCS(=O)(=O)N1CCCC(C(=O)NCC2CCCO2)C1 (centres undefined) 121%
CCS(=O)(=O)N1CCC(Nc2nc3c(c(=O)[nH]2)CCCC3)CC1 113%
Cc1ccc(NC(=O)CSc2nc3cc(C)cc(C)c3cc2C#N)c(Br)c1 103%
CCn1c(C)cc2cc(NC(=O)c3cc(C4CC4)nn3C)ccc21 26.3%
COc1cc(C(=O)NNc2nc3c(OC)ccc(OC)c3s2)cc(OC)c1OC 118%
O=C(CSc1nc2sc3c(c2c(=O)n1Cc1ccco1)CCC3)Nc1nccs1 87%
O=C(OCCNC1=C(Cl)C(=O)c2ccccc2C1=O)c1ccccc1 40.1%
O=[N+]([O-])c1ccc2sc(SCc3nc4ncccn4c3Br)nc2c1 30.2%
CCS(=O)(=O)c1ccccc1C(=O)Nc1ccc2nc(C)sc2c1 102%
O=C(Nc1nc2ccc3ccccc3c2s1)c1ccc(S(=O)(=O)N2CCc3ccccc32)cc1 104%
Cc1cccc(N2CCN(c3nccnc3SCC(=O)Nc3ccccc3Cl)CC2)c1C 62.4%
COC(=O)c1cc(Nc2nc(C)nc3sc4c(c23)CCC4)cc(C(=O)OC)c1 117%
CSc1ncc(C(=O)NC(c2ccccc2)c2cccnc2)cn1 (centres undefined) 116%
Cc1ccc(-c2nc(C(N)=O)c3[nH]c(=O)n(C(C)C)c3n2)cc1C 109%
O=C(CN(C(=O)C(=O)Nc1ccc2c(c1)OCCO2)N1CCOCC1)NC1CCCC1 128%
COc1ccc(NC(c2ccccn2)c2oc(CO)cc(=O)c2O)cc1 (centres undefined) 102%
COc1ccc2c(c1)c(=O)c(Br)c(C)n2CC(=O)Nc1cccc(C)c1 103%
Cc1cc(O)c(C(c2ccncc2)N2CCC(C)CC2)c(=O)n1Cc1ccco1 (centres undefined) 112%
O=C(NCCc1ccc(Cl)cc1)C(=O)Nc1ccon1 123%
Cc1c(CCC(=O)O)c(=O)n2c([nH]c3ccccc32)c1C#N 98.2%
Cc1ccc(NC(=O)CSC2CC(=O)N(c3ccc(C)cc3)C2=O)cc1 (centres undefined) 115%
COCCn1c2ccccc2n2c(=O)n(Cc3cscn3)nc12 113%
COc1cccc(OCC(=O)N2CCC3(CC2)CC(=O)c2ccccc2O3)c1 59%
Cc1ccc(C)c(S(=O)(=O)c2cnc(SCC(=O)Nc3ccc(F)cc3F)[nH]c2=O)c1 107%
CN(C(=O)c1cccc(NC(=O)C2OCOc3ccccc32)c1)C1CCCCC1 (centres undefined) 86.4%
O=C(c1cccnc1)N1C(=O)c2cccc3cccc1c23 105%
O=C(Cn1c(=O)n(CCC(=O)NC2CCCC2)c(=O)c2ccccc21)NCCC1=CCCCC1 113%
O=C(Nc1ccc(F)c(F)c1)c1ccc2nc[nH]c2c1 113%
O=C(COc1ccc(Cl)cc1)NCCSc1ncc(-c2ccc(F)cc2)[nH]1 98.9%
O=C(CSc1nnc2ccc(-c3cccnc3)nn12)NCc1ccco1 105%
CN(C)Cc1c(O)ccc2c1O/C(=C\c1ccccc1)C2=O 108%
CC1CCc2cc(F)ccc2N1C(=O)c1sc2nc3cc4c(cc3cc2c1N)OCO4 (centres undefined) 76.7%
Cc1cc(NCCCn2ccnc2)n2c(nc3ccccc32)c1C#N 110%
COC(=O)Cn1/c(=N/C(=O)COc2ccc(Cl)cc2)sc2cc(NC(C)=O)ccc21 111%
CCN(CC)S(=O)(=O)c1ccc(C(=O)Oc2cc(C)[nH]c(=O)c2[N+](=O)[O-])cc1 117%
Fc1ccccc1Nc1nc(=S)[nH]c2ccccc12 87.7%
COc1cccc(C(=O)NCC(=O)N/N=C/c2ccc(Cl)cc2)c1 91.4%
CCCCc1ccc(NC(=O)/C=C2\SC(=O)NC2=O)cc1 91.3%
CCOC(=O)c1c(SC(CC)C(=O)OC)nc(=O)[nH]c1C (centres undefined) 110%
CCOC(=O)N1CCN(C(=O)Cn2c(=O)n(-c3ccccc3)c(=O)c3oc4ccccc4c32)CC1 113%
N#CC1=C(SCC(=O)N(c2ccccc2)c2ccccc2)NC2=C(C(=O)CCC2)C1c1ccco1 (centres undefined) 97.6%
C=CCOc1ccc(C2NC(=O)c3c(sc4c3CCCC4)N2)cc1OC (centres undefined) 78.6%
O=C(Cc1cc(=O)[nH]c(=O)[nH]1)NCCC(c1ccccc1)c1ccccc1 126%

Three structures already listed, sorted by SMILES length, high to low:
Intracellular bacterial bioluminescence, inactive:
Cc1ccc(C)c(S(=O)(=O)c2cnc(SCC(=O)Nc3ccc(F)cc3F)[nH]c2=O)c1 107%
Cc1cccc(N2CCN(c3nccnc3SCC(=O)Nc3ccccc3Cl)CC2)c1C 62.4%
CCS(=O)(=O)N1CCCC(C(=O)NCC2CCCO2)C1 (centres undefined) 121%
